Measured values taken from publication doi:10.1101/842682.
Results are given in words; binding and its absence hold for the method and conditions named. Binding seen in cells or lysates may run through a third protein. Some results given as binding are weak or reduced against the parent protein; the word gives no strength. Sequences can lack the tags named with a protein.

T1: GFP-Cep57 (mouse) (UniProt Q8CEE0)
T1 sequence: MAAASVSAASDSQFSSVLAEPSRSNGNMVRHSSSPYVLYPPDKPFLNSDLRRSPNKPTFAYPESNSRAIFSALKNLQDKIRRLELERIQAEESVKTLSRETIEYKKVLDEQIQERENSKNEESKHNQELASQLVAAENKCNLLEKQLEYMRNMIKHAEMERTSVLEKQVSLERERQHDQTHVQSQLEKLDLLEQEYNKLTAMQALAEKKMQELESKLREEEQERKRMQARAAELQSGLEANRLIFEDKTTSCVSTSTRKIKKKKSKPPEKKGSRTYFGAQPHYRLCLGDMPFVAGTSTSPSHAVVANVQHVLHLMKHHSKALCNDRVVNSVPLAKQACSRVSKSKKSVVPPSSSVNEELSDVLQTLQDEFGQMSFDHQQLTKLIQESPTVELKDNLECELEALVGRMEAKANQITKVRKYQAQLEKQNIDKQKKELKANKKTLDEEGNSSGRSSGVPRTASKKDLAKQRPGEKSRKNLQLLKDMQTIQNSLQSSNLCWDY

T2: GFP-Cep57l1 (mouse) (UniProt Q8VDS7)
T2 sequence: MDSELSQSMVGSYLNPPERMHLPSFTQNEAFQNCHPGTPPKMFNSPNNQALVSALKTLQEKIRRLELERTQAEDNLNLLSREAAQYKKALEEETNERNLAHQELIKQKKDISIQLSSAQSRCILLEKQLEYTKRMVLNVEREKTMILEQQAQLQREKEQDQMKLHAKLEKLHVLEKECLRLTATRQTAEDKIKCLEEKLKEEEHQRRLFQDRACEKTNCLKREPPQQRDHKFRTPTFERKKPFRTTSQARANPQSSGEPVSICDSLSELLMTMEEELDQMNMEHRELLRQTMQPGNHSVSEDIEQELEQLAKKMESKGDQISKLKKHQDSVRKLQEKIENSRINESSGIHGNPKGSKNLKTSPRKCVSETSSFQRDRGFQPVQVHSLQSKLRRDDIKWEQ

T3: GST-Cep57 (mouse) (UniProt Q8CEE0)
T3 sequence: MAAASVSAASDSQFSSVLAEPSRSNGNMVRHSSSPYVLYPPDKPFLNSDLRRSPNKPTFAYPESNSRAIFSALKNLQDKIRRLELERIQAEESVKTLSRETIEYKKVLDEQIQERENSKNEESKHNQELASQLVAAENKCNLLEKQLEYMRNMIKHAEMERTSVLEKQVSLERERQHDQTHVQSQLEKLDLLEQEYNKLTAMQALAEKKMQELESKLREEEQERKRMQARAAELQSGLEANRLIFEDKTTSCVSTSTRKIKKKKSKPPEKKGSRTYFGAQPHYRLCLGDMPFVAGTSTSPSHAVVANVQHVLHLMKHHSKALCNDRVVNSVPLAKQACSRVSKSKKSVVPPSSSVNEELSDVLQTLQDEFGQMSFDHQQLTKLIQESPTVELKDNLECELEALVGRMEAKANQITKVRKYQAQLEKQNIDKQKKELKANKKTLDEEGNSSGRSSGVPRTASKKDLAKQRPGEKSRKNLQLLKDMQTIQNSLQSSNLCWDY


How the values were obtained:
GFP-Cep57 (mouse) = biological target: T1, GFP-Cep57 (mouse); experiment: co-IP
GFP-Cep57l1 (mouse) = biological target: T2, GFP-Cep57l1 (mouse); experiment: co-IP
GST-Cep57 (mouse) = biological target: T3, GST-Cep57 (mouse); experiment: pull-down

| Binder | binding (GFP-Cep57 (mouse)) | binding (GFP-Cep57l1 (mouse)) | binding (GST-Cep57 (mouse)) |
| --- | --- | --- | --- |
| Flag-Cep63 (protein, UniProt Q3UPP8 1-700) MEALLEGIQNRGHSGGFLTSCEAELQELMKQIDIMVAHKKSEWEGQTHALETCLDIRDRELKALRSQLDMKHKEVGILHQQIEEHEKTKQEMAMEYKEELLKLQEELSRLKRSYEKLQKKQLREFRGNTKSFREDRSEIERLTGKIEEFRQKSLDWEKQRLIYQQQVSSLEAQRKALAEQSEIIQAQLANRKQKLESVELSSQSEIQHLNSKLERAKDTICANELEIERLNIRVNDLMGTNMTILQDHRQKEEKLRESEKLLEALQEEQKELKASLQSQETFILEAKMQEKLQTTLKAVGTQQSVERPLEDCQKERKYSSPGQGVLDNVLSQLDFSHSSEELLQAEVTRLEGSLESVSATCKQLSQELMEKYEELKRMEGHNNEYRTEIKKLKEQILQADQTYSSALEGMKMEISQLTRELHQRDITIASAKCSSSDMEKQLKAEMQKAEEKAVEHKEILSQLESLKLENHRLSETVMKLELGLHEAKEISLADLQENYIEALNKLVSENQQLQKDLMSTKSELEHATNMCKKKDGEIFNPAHSRAAGFKNAELKPIHGQHRHDGIKTEQYKTGHHSPRGQTLDSIDPVARGPSPLSSHISPGSSTVSLPSNFLFEAHSLPSVLDINDVNFSDSLSDCMNDQEEFVSSGSLPTSPLGSIATRFLEEEELRSHHILERLDAHIEELKRESEKTVRQFTALV | binds | binds | – |
| His-Cep63 (protein, UniProt Q3UPP8 1-700) MEALLEGIQNRGHSGGFLTSCEAELQELMKQIDIMVAHKKSEWEGQTHALETCLDIRDRELKALRSQLDMKHKEVGILHQQIEEHEKTKQEMAMEYKEELLKLQEELSRLKRSYEKLQKKQLREFRGNTKSFREDRSEIERLTGKIEEFRQKSLDWEKQRLIYQQQVSSLEAQRKALAEQSEIIQAQLANRKQKLESVELSSQSEIQHLNSKLERAKDTICANELEIERLNIRVNDLMGTNMTILQDHRQKEEKLRESEKLLEALQEEQKELKASLQSQETFILEAKMQEKLQTTLKAVGTQQSVERPLEDCQKERKYSSPGQGVLDNVLSQLDFSHSSEELLQAEVTRLEGSLESVSATCKQLSQELMEKYEELKRMEGHNNEYRTEIKKLKEQILQADQTYSSALEGMKMEISQLTRELHQRDITIASAKCSSSDMEKQLKAEMQKAEEKAVEHKEILSQLESLKLENHRLSETVMKLELGLHEAKEISLADLQENYIEALNKLVSENQQLQKDLMSTKSELEHATNMCKKKDGEIFNPAHSRAAGFKNAELKPIHGQHRHDGIKTEQYKTGHHSPRGQTLDSIDPVARGPSPLSSHISPGSSTVSLPSNFLFEAHSLPSVLDINDVNFSDSLSDCMNDQEEFVSSGSLPTSPLGSIATRFLEEEELRSHHILERLDAHIEELKRESEKTVRQFTALV | – | – | binds |
